Laboratory results as given in PMC5345165, “Cardiotoxicity evaluation using human embryonic stem cells and induced pluripotent stem cell-derived cardiomyocytes” (Stem Cell Research & Therapy, 2017).

Columns and labels:
hiPSC-CMs = experiment: xCELLigence RTCA Cardio impedance assay on hiPSC-CMs
Method: (§1) Human ESC-CMs were kindly provided by the Institute of Biophysics of the Chinese Academy of Sciences, Beijing, China. Human iPSC-CMs, provided by a domestic manufacturer (Cellapy: CA2001106, Beijing, China), were also examined. Cells were incubated in maintaining medium at 37 °C, 5% CO2, with culture medium refreshed every 2 days. Cells were dissociated and replated into 96-well E-plates (ACEA Biosciences, Hangzhou, China), which was pre-coated with 0.1% gelatin. Cells were plated at a density of 50,000 cells per well.
(§2) Spontaneous cardiomyocytes contraction and cell health were monitored in real-time by impedance using xCELLigence real-time cellular analyzer (RTCA) Cardio system (ACEA Biosciences, Hangzhou, China). Impedance signals were monitored and recorded with 20 s recording per sweep.
(§3) Drug dilutions were equilibrated in a 37 °C, 5% CO2 incubator for 30 min before being applied to E-plates.
(§4) For data analysis, cellular impedance index, beat rate, and amplitude were measured off-line using RTCA Cardio software 1.0 and normalized for each well to the baseline (pre-dose) values measured prior to the compounds treatment. Statistics were performed using SPSS 21.0 (IBM Corp., Armonk, NY, USA). Data were presented as mean ± SEM. Statistical significance of differences was estimated by one-way ANOVA or Student’s t test. p < 0.05 was considered significant.

hESC-CMs = experiment: xCELLigence RTCA Cardio impedance assay on hESC-CMs
Method: as §1, §2, §3, §4

Cc1cccc(CCN2CCC(C(=O)c3ccc(NS(C)(=O)=O)cc3)CC2)n1 [E-4031]
effect on CI (hiPSC-CMs; 100 and 300 nmol/L): substantially reduced | CI (concentration at which cell index is decreased, ↓) (hiPSC-CMs; arrow ↓ = CI decreased): 0.1↓ μmol•L^-1 | effect on CI (hESC-CMs): increased | CI (concentration at which cell index is increased, ↑) (hESC-CMs; arrow ↑ = CI increased): 0.01↑ μmol•L^-1
